Holding throughout (test): co-IP
One assay addresses T1, FLAG-OTUD6B (UniProt Q8N6M0).
T1 sequence: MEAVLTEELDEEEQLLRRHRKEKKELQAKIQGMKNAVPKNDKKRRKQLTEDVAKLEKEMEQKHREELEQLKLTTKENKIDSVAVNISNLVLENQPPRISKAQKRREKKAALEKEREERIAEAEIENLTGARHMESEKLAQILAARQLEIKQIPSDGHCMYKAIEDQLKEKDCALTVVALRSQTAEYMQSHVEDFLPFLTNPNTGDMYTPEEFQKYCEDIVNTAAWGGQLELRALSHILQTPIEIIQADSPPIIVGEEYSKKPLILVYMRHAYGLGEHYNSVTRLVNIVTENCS

In assay [1] the target is T2, FLAG-tagged OTUD4 (OTU domain-containing protein 4) (human) (UniProt Q01804).
T2 sequence: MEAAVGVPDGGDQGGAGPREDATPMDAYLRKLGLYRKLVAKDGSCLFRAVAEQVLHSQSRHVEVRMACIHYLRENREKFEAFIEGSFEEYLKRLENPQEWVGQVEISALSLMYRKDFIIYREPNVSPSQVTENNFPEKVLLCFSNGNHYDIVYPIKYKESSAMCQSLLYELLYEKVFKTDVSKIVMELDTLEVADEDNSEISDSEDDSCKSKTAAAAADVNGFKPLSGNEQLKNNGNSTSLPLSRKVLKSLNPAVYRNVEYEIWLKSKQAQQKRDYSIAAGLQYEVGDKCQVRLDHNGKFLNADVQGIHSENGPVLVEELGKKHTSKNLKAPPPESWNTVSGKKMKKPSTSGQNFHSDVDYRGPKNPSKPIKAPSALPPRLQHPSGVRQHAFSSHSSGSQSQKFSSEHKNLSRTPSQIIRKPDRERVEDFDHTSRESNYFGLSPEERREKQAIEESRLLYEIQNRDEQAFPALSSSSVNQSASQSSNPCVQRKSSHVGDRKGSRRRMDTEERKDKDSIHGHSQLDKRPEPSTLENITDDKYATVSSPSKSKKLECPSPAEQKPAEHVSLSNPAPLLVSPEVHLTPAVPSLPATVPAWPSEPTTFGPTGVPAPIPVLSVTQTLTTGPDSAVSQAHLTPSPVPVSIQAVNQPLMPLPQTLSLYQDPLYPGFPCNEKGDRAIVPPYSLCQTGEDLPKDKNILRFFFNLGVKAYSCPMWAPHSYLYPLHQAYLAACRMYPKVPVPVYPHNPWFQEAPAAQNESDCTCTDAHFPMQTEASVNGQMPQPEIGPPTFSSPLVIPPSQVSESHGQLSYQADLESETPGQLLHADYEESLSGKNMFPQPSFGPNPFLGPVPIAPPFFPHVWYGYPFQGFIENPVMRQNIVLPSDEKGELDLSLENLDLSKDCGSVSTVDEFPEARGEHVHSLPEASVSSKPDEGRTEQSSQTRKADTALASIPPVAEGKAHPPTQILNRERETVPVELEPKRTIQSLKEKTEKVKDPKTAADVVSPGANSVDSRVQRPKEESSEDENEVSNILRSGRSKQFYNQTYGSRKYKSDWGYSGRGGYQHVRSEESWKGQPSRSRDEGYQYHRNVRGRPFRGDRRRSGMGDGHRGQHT

The target in assay [2] is T3, FLAG-tagged c-REL (human) (UniProt Q04864).
T3 sequence: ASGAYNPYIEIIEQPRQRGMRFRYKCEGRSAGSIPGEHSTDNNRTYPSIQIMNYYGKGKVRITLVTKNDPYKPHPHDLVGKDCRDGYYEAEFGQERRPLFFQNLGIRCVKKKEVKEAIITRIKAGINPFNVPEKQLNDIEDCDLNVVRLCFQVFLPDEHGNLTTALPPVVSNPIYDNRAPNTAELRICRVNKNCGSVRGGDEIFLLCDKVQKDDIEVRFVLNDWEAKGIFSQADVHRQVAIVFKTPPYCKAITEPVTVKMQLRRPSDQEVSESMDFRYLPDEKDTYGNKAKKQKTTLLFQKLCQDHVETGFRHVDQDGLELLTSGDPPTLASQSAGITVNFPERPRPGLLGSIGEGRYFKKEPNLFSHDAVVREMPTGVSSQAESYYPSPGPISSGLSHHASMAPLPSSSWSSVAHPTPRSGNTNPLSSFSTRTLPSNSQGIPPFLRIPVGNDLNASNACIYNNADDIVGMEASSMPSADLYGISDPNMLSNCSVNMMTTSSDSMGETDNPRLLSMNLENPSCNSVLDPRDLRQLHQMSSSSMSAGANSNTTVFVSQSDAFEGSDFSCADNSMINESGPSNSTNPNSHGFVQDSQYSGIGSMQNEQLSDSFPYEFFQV

Results are given in words; binding and its absence hold for the method and conditions named. In cells and extracts the contact can be indirect. Some entries that bind do so weakly or less than the wild type. Tags and fused reporters may be left off the sequences shown.

B1: c-REL (as detected in the FLAG-OTUD4 / FLAG-OTUD6B immunoprecipitations of Fig. 3C) (protein, UniProt Q04864-1 1-619)
chain: MASGAYNPYIEIIEQPRQRGMRFRYKCEGRSAGSIPGEHSTDNNRTYPSIQIMNYYGKGKVRITLVTKNDPYKPHPHDLVGKDCRDGYYEAEFGQERRPLFFQNLGIRCVKKKEVKEAIITRIKAGINPFNVPEKQLNDIEDCDLNVVRLCFQVFLPDEHGNLTTALPPVVSNPIYDNRAPNTAELRICRVNKNCGSVRGGDEIFLLCDKVQKDDIEVRFVLNDWEAKGIFSQADVHRQVAIVFKTPPYCKAITEPVTVKMQLRRPSDQEVSESMDFRYLPDEKDTYGNKAKKQKTTLLFQKLCQDHVETGFRHVDQDGLELLTSGDPPTLASQSAGITVNFPERPRPGLLGSIGEGRYFKKEPNLFSHDAVVREMPTGVSSQAESYYPSPGPISSGLSHHASMAPLPSSSWSSVAHPTPRSGNTNPLSSFSTRTLPSNSQGIPPFLRIPVGNDLNASNACIYNNADDIVGMEASSMPSADLYGISDPNMLSNCSVNMMTTSSDSMGETDNPRLLSMNLENPSCNSVLDPRDLRQLHQMSSSSMSAGANSNTTVFVSQSDAFEGSDFSCADNSMINESGPSNSTNPNSHGFVQDSQYSGIGSMQNEQLSDSFPYEFFQV
As to B1, the binding result is given as “no binding” with FLAG-OTUD6B and “binds” in assay [1].

B2: non-tagged OTUD4 (enzyme, UniProt Q01804-1 1-1114)
chain: T2 sequence
As to B2, the binding result in assay [2] is given as “binds”.

Source of the values: publication doi:10.1101/2023.05.06.539691.
